# The other results are listed elsewhere or left out. Many values rest on one well or one pass, so single values are uncertain.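 Labelled rat cortical synaptosomes were engulfed by primary human fetal astrocytes. Engulfment equaled a red/green ratio, corrected for calcein live-cell signal and normalized to the plate median. Compounds were toxic when calcein dropped over 30%, and reduced phagocytosis when below 70% of the median above 5 µM.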
# Assays:
# [1] = test system: Human fetal astrocytes; assay: loss of total cells relative to no-compound high-control median (toxicity); higher = more toxic (fewer cells); settings: 24 h
# [2] = test system: Human fetal astrocytes; assay: synaptosome phagocytosis (pHrodo/calcein intensity ratio) relative to plate median of data wells; higher = more phagocytosis; settings: 24 h
Structure (SMILES),loss of total cells ([1]; 1.39 µM) [%],loss of total cells ([1]; 2.78 µM) [%],loss of total cells ([1]; 5.56 µM) [%],loss of total cells ([1]; 11.11 µM) [%],loss of total cells ([1]; 22.22 µM) [%],synaptosome phagocytosis ([2]; 1.39 µM) [%],synaptosome phagocytosis ([2]; 2.78 µM) [%],synaptosome phagocytosis ([2]; 5.56 µM) [%],synaptosome phagocytosis ([2]; 11.11 µM) [%],synaptosome phagocytosis ([2]; 22.22 µM) [%]
O=C(O)CCCc1ccccc1,5.4,13.4,8.7,7.9,1.5,103,119,79.9,117,126
N[C@@H](C(=O)O)[C@@H](O)[C@H](O)[C@H](O)CO,-9,4.7,-16.8,-0.7,13.3,145,101,99.5,119,121
CC(=O)OCC(=O)[C@@]12OC(C)(C)O[C@@H]1C[C@H]1[C@@H]3C[C@H](F)C4=CC(=O)C=C[C@]4(C)[C@@]3(F)[C@@H](O)C[C@@]12C,3.3,-25.4,-9.8,-28,-1.5,105,97.7,97.1,126,122
C#C[C@]1(O)CC[C@H]2[C@@H]3CCC4=Cc5oncc5C[C@]4(C)[C@H]3CC[C@@]21C,-0.3,-13.2,-4.9,-2.6,-6.4,95.7,99.7,96,95.1,76.2
Cc1ccc(-c2cc(C(F)(F)F)nn2-c2ccc(S(N)(=O)=O)cc2)cc1,-51.6,-16.7,-0.6,-4.9,3.4,94.5,131,95,84.5,105
COc1c(C)c2c(c(O)c1C/C=C(\C)CCC(=O)O)C(=O)OC2,10.4,-4.4,-11.1,7.8,-8.2,105,87.1,89.6,84.5,95.1
CN[C@@H]1[C@H](O[C@H]2[C@H](O[C@H]3[C@H](O)[C@@H](O)[C@H](N=C(N)N)[C@@H](O)[C@@H]3N=C(N)N)O[C@@H](C)[C@]2(O)C=O)O[C@@H](CO)[C@H](O)[C@H]1O,3.9,-6.4,-8.4,2,-7,95.9,63.5,106,104,63.8
O=C(Oc1ccccc1C(=O)O)c1ccccc1O,5,-18.6,6.9,-15.6,14.7,111,124,101,132,106
NC(=O)c1cccnc1,5,-2.1,4.5,-6.3,-4,122,81.9,103,107,103
COc1cc(-c2coc3cc(O)c(OC)c(O)c3c2=O)cc(O)c1OC,-10.5,-8.6,38.9,12.9,35.2,101,104,148,109,150
COc1ccc(C(=O)CC(=O)O)c2c1C=CC(C)(C)O2,-9,-6.1,-8.8,4.7,0,99.2,91.8,122,90.3,104
C=C1C(=O)O[C@@H]2C[C@@]3(C)CCC[C@H](C)C3=C[C@H]12,-20.5,-9.7,1.5,-4.1,-3.7,139,113,103,72.9,42.8
CS(=O)(=O)c1ccc([C@@H](O)[C@@H](CF)NC(=O)C(Cl)Cl)cc1,-11.2,10.6,-4.6,3.9,-13,138,79.4,108,115,93.4
CCOC(=O)Nc1nc2ccccc2[nH]1,19.4,-36.5,3.7,49.5,6.5,140,115,117,113,78.8
CC(=O)O[C@H]1C[C@@H](OC(C)=O)C(C)(C)[C@@H]2C[C@@H](OC(C)=O)[C@@]3(C)C4=CC(=O)O[C@@H](c5ccoc5)[C@]4(C)CC[C@@H]3[C@@]12C,18.5,-4,37.4,45.2,24.1,104,67.7,102,132,90
O=C1C(O)=C(O)C(=O)C(O)=C1O,-5.6,-25.4,4.3,-14.8,1.6,102,93.6,130,69.2,102
O=C(O)c1cn(-c2ccc(F)cc2)c2cc(N3CCNCC3)c(F)cc2c1=O,-37.9,25.4,-5.6,50.8,3.4,107,153,116,167,106
CN(C)CCOc1ccc(/C(=C(/CCCl)c2ccccc2)c2ccccc2)cc1,-16.9,27.8,19.3,46.2,13.4,79.8,70,95.7,128,112

# 2 entries from above, set out differently:
Structure (SMILES) | loss of total cells ([1]; 1.39 µM) [%] | loss of total cells ([1]; 2.78 µM) [%] | loss of total cells ([1]; 5.56 µM) [%] | loss of total cells ([1]; 11.11 µM) [%] | loss of total cells ([1]; 22.22 µM) [%] | synaptosome phagocytosis ([2]; 1.39 µM) [%] | synaptosome phagocytosis ([2]; 2.78 µM) [%] | synaptosome phagocytosis ([2]; 5.56 µM) [%] | synaptosome phagocytosis ([2]; 11.11 µM) [%] | synaptosome phagocytosis ([2]; 22.22 µM) [%]
C=C1C(=O)O[C@@H]2C[C@@]3(C)CCC[C@H](C)C3=C[C@H]12 | -20.5 | -9.7 | 1.5 | -4.1 | -3.7 | 139 | 113 | 103 | 72.9 | 42.8
CS(=O)(=O)c1ccc([C@@H](O)[C@@H](CF)NC(=O)C(Cl)Cl)cc1 | -11.2 | 10.6 | -4.6 | 3.9 | -13 | 138 | 79.4 | 108 | 115 | 93.4

# Reference: the supplement of paper PMC10689618
